According to the supplement of paper PMC10663445:
Where a name gives a salt, the structure may show the parent alone. This is one part of the list. Single values are uncertain, as repeats are few or missing.

The molecules below were run on hsa-miR-132-3p (assay: miR-132-3p level in NGN2-iNs after compound treatment (TMM-normalised, ComBat batch-corrected) (batch-corrected normalised expression (arbitrary units)); higher = higher miR-132-3p expression). Settings: 10 µM; 24 h; human iPSC-derived NGN2 neurons (BR43).
`CC(C)N(CCNC(=O)CN1CCCC1=O)C(C)C` [Pramiracetam] was tested, and the “miR-132-3p level in NGN2-iNs” value was -0.467.
`CNCC(=O)c1ccc(O)c(O)c1` [Adrenalone HCl] was tested, and the “miR-132-3p level in NGN2-iNs” value was 0.242.
For `COC(=O)C1=CCCN(C)C1` [Arecoline HBr], the “miR-132-3p level in NGN2-iNs” value was 0.595.
`CC[C@@]1(O)C(=O)OCc2c1cc1n(c2=O)Cc2cc3ccccc3nc2-1` [Camptothecin] was tested, and the “miR-132-3p level in NGN2-iNs” value was 0.0455.
For `CN1c2ccccc2C(NCCCCCCC(=O)O)c2ccc(Cl)cc2S1(=O)=O` (stereo not given) [Tianeptine sodium], the “miR-132-3p level in NGN2-iNs” value was -0.707.
`CCNC(=O)C[C@@H]1N=C(c2ccc(Cl)cc2)c2cc(OC)ccc2-n2c(C)nnc21` was tested, and the “miR-132-3p level in NGN2-iNs” value was -0.424.
`O=C(O)CNC(=O)c1c(O)c2ccccc2n(Cc2ccccc2)c1=O` was tested, and the “miR-132-3p level in NGN2-iNs” value was -0.512.
In the case of `CC(=O)Nc1ccc(Cc2ccc(NC(C)=O)cc2)cc1`, the “miR-132-3p level in NGN2-iNs” value is reported as 0.883.
With `COc1cc(-n2c(=S)[nH]c3ccccc3c2=O)c(Cl)cc1Cl` [Mdivi-1] the “miR-132-3p level in NGN2-iNs” value was -0.458.
With `C[C@H]1CCC/C=C/[C@@H]2C[C@H](O)C[C@H]2[C@H](O)/C=C/C(=O)O1` [Brefeldin A] the “miR-132-3p level in NGN2-iNs” value was -0.886.
`CN(C)Cc1c[nH]c2ccccc12` [Gramine] was tested, and the “miR-132-3p level in NGN2-iNs” value was -0.229.
For `O=C(O[C@H]1C[C@H]2CC[C@@H](C1)[N+]21CCCC1)C(O)(c1ccccc1)c1ccccc1` [Trospium chloride], the “miR-132-3p level in NGN2-iNs” value was -0.245.
For `C1=C2CCCN[C@H]2[C@@H]2C[C@H]1[C@H]1CCCCN1C2` [Aloperine], the “miR-132-3p level in NGN2-iNs” value was 0.669.
`CN1CCC(c2c[nH]c3ccc(O)cc23)CC1` was tested, and the “miR-132-3p level in NGN2-iNs” value was -0.472.
For `NC(=O)CN1CC(O)CC1=O` (stereo not given) [Oxiracetam], the “miR-132-3p level in NGN2-iNs” value was 1.33.
With `COC[C@H]1OC(=O)c2coc3c2[C@@]1(C)C1=C(C3=O)[C@@H]2CCC(=O)[C@@]2(C)C[C@H]1OC(C)=O` the “miR-132-3p level in NGN2-iNs” value was 0.823.
For `Cc1cccc(C(C)c2c[nH]cn2)c1C` (stereo not given) [Medetomidine HCl], the “miR-132-3p level in NGN2-iNs” value was -0.112.
For `C=C[C@H]1CN2CC[C@H]1C[C@H]2[C@H](O)c1ccnc2ccccc12` [Cinchonidine], the “miR-132-3p level in NGN2-iNs” value was -0.0799.
With `C/C(=C\c1csc(C)n1)[C@@H]1C[C@@H]2O[C@]2(C)CCC[C@H](C)[C@H](O)[C@@H](C)C(=O)C(C)(C)[C@@H](O)CC(=O)O1` [Patupilone (Epothilone B)] the “miR-132-3p level in NGN2-iNs” value was 0.0932.
In the case of `O=c1[nH]c2ccccc2n1CCCN1CCC(n2c(=O)[nH]c3cc(Cl)ccc32)CC1` [Domperidone], the “miR-132-3p level in NGN2-iNs” value is reported as -0.741.
In the case of `Cc1cc(O)ccc1Cl` [Chlorocresol], the “miR-132-3p level in NGN2-iNs” value is reported as -0.402.
In the case of `c1cc2c(cc1[C@H]1OC[C@H]3[C@@H]1CO[C@@H]3c1ccc3c(c1)OCO3)OCO2` [Sesamin], the “miR-132-3p level in NGN2-iNs” value is reported as 1.16.
For `Nc1nc(N)nc(NC2CC2)n1` [Cyromazine], the “miR-132-3p level in NGN2-iNs” value was -1.13.
For `CN1[C@@H]2CC[C@H]1C[C@@H](OC(=O)[C@H](CO)c1ccccc1)C2` [Hyoscyamine], the “miR-132-3p level in NGN2-iNs” value was -0.00177.
`Fc1cc(F)c2c(c1)[C@H]1C=CC[C@H]1C(c1cccnc1)N2` (stereo not given in full) [Golgicide A] was tested, and the “miR-132-3p level in NGN2-iNs” value was 1.02.
